# Source: article PMC7819943, “Rice protein-binding microarrays: a tool to detect cis-acting elements near promoter regions in rice”
# Chains of the proteins cited; added tags and fusions are not shown.
# UniProt Q0JBA9, entry or part of it: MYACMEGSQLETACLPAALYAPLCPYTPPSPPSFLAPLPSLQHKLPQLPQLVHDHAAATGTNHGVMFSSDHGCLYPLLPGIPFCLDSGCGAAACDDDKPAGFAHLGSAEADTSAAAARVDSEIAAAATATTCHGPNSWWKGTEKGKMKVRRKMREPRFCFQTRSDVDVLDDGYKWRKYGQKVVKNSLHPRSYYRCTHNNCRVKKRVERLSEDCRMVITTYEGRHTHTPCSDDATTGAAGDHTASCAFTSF
# This is one part of the list.
# Molecular target: OsWRKY34 (Oryza sativa, UniProt Q0JBA9 1-250)
# Assay: protein-binding microarray (RPBM); PBS, 2% BSA, 51.3 ng/ul salmon testes DNA, 50 uM zinc acetate, 200 nM TF, 25 C, 1 h; high values mean tight binding
# Details: protein: recombinant; tags: N-terminal polyhistidine and DsRed monomer fusion (pET32a); label: CyDye5-dUTP incorporated in the synthesized complementary strand; 3' TTTTT single-stranded linker to array surface; dsDNA, one strand shown
# Summary of the method: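 A custom Agilent array was converted to double-stranded form by primer extension with Cy5-dUTP and blocked with 2% BSA. Protein at 200 nM in PBS with 2% BSA, salmon testes DNA and 50 µM zinc acetate was applied for 1 h at 25 °C, followed by washing. The proteins were polyhistidine–DsRed N-terminal fusions of transcription factors, expressed in E. coli BL21-CodonPlus and Ni–NTA-purified. The binding signal is per-feature fluorescence intensity (arbitrary units) from an Axon 4000B scanner.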
row,Sequence,binding signal
1,GGGCGTATTCCATCTCCGTCGTCCTGCATGCACCGCCCATCGGAGTCACCTAGTGCAG,11200 fluorescence intensity (a.u.)
2,CGCCGCCGATATCCGTCGTCCTAGCGTCGCCTTAATCCTCCGGAGTCACCTAGTGCAG,8760 fluorescence intensity (a.u.)
3,GTCCTTATTCTTATTCCACGGTTGATTTCCTGAACTAACCCGGAGTCACCTAGTGCAG,9270 fluorescence intensity (a.u.)
4,TTTCGTCGTGACGAGTCACGTATCGCTACTTGCAAACTGCCGGAGTCACCTAGTGCAG,8220 fluorescence intensity (a.u.)
5,ACACAGCTTTTCTACTACATTTTCTTGGGTTTCTTGAATGCGGAGTCACCTAGTGCAG,8680 fluorescence intensity (a.u.)
6,CCCCTACAAGTACCTCTGACCGCTTCTTTAGCACATCAACCGGAGTCACCTAGTGCAG,12500 fluorescence intensity (a.u.)
7,TGTCTCTCTTTGACATCTTGTTTCCCATAACCTAAAGATACGGAGTCACCTAGTGCAG,8260 fluorescence intensity (a.u.)
8,AAATTTGTACCATCTTGTTGTCCATCATTCTTGACAAGAGCGGAGTCACCTAGTGCAG,8080 fluorescence intensity (a.u.)
9,GAGTTGGGTTGGAGTGGTTTGGATCGCTGCTTCACTAGGGCGGAGTCACCTAGTGCAG,27400 fluorescence intensity (a.u.)
10,TATAGATCCTCGTTCCAACATATACCCCAATACACTAATCCGGAGTCACCTAGTGCAG,9810 fluorescence intensity (a.u.)
11,GATTTAGTGAAGTGTATCTTTGACCACTTGATGGATTGTTCGGAGTCACCTAGTGCAG,8360 fluorescence intensity (a.u.)
12,AGTGAATAGCTCATTGTATCCTTTTTACTTGCAAGGCTTACGGAGTCACCTAGTGCAG,11100 fluorescence intensity (a.u.)
13,CCAGCTGTGTGTGTGCACGCGGTTTTCCAATCGATTCTTCCGGAGTCACCTAGTGCAG,9270 fluorescence intensity (a.u.)
14,CTGTTGGCTTTCAACATGAATTTGTTTTCCTTTGCACGGCCGGAGTCACCTAGTGCAG,8720 fluorescence intensity (a.u.)
15,TTTCCTGAGCTGCTGTCTCCCGTTCTCTTTCTGAGAGCAACGGAGTCACCTAGTGCAG,8400 fluorescence intensity (a.u.)
16,CTTTATACTGTATTTATACCTTTCCTATTGGTTTCAGATACGGAGTCACCTAGTGCAG,8880 fluorescence intensity (a.u.)
17,TTCTATTTTACCTCTCGTCTCTCTCCTCGCGGTCGCTTCTCGGAGTCACCTAGTGCAG,12800 fluorescence intensity (a.u.)
18,ACCAAAACGCCCTCTGCCTCGCAGGAGACCGGTCAACGCGCGGAGTCACCTAGTGCAG,9010 fluorescence intensity (a.u.)
19,AGGTGAGTTGGTTGGTGGGTGCAGATAGTGTTGGATGCAGCGGAGTCACCTAGTGCAG,8200 fluorescence intensity (a.u.)
20,CTTGCTCTCTCGTTTGCTCTTCTACTGCTCATCCTCCTCCCGGAGTCACCTAGTGCAG,13700 fluorescence intensity (a.u.)
21,CACATTTTTTCTTTATTTTTCGGCCTCATATTCAATTTTGCGGAGTCACCTAGTGCAG,8810 fluorescence intensity (a.u.)

row,Sequence,binding signal
1,TCTTTTTCTTCATTTTCGGTTGCTAGGTCACATTTGTCCTCGGAGTCACCTAGTGCAG,10100 fluorescence intensity (a.u.)
2,AACCCGATCACTTCCACGCCGCGCGATTGGTTGGCGAGCCCGGAGTCACCTAGTGCAG,8800 fluorescence intensity (a.u.)
3,CCGTTGTGTACTTTCAGCGGCTTTGGTTCGTGTTCCTCGCCGGAGTCACCTAGTGCAG,9810 fluorescence intensity (a.u.)
4,ATACACGGATACACCACCTTCATCTCTCCTGTGTTTTCCTCGGAGTCACCTAGTGCAG,9760 fluorescence intensity (a.u.)
5,GTGGCTCTGAATCTCAACTCATGCGCCACTTTGTTTCAAACGGAGTCACCTAGTGCAG,8320 fluorescence intensity (a.u.)
6,ACGGCCGCGCGCACCACCGCCTCGGCGGGCTGTATCTCAGCGGAGTCACCTAGTGCAG,8080 fluorescence intensity (a.u.)
7,TTTGTGTTGTCTAGACATTTTTTTCTATTTTTCACCTATTCGGAGTCACCTAGTGCAG,9190 fluorescence intensity (a.u.)
8,TGCAAATACACCACAGGGTATTTTTTTTGTCTCTGATTTTCGGAGTCACCTAGTGCAG,8450 fluorescence intensity (a.u.)
9,TCTTTTAAATCTAATTGCTCTATGATTTGACCATGTGGTGCGGAGTCACCTAGTGCAG,8520 fluorescence intensity (a.u.)
10,AAAATTTGTGCCAGTTTGCTTGTTATTACGAATGGTAACACGGAGTCACCTAGTGCAG,8070 fluorescence intensity (a.u.)
11,ACACACAGCCACTGCCGCAATTCGCAAATGACCAACGATCCGGAGTCACCTAGTGCAG,8590 fluorescence intensity (a.u.)
12,AAGCCATCCGATCTCATCTCATCTCATCTCACCCTCGCCGCGGAGTCACCTAGTGCAG,8890 fluorescence intensity (a.u.)
13,AACCAGCATCTACCACTGCTTCTCCCGCCTCTGCTGCAACCGGAGTCACCTAGTGCAG,10700 fluorescence intensity (a.u.)
14,ACACATAAGATATTCTATCTATATTCGGTATCCTATATTCCGGAGTCACCTAGTGCAG,8280 fluorescence intensity (a.u.)
15,CACCATAACTAATTAACAAGCCACCTATTTCCTCTTGACACGGAGTCACCTAGTGCAG,8200 fluorescence intensity (a.u.)
16,ACTTACACACAACGTACCAGTACTAATAATGCATAGCAAACGGAGTCACCTAGTGCAG,8650 fluorescence intensity (a.u.)
17,ACGAATTACACTTTTACGGTCAGGATAGACTGCTTATAATCGGAGTCACCTAGTGCAG,8820 fluorescence intensity (a.u.)
18,CACAATCTTTCACCACTCACTTCTACCTATTTTTTTAATACGGAGTCACCTAGTGCAG,10200 fluorescence intensity (a.u.)
19,GAGTATTTTTTTTTTTTTTGGGTATCCATCCAACCGGCGACGGAGTCACCTAGTGCAG,10200 fluorescence intensity (a.u.)
20,GACCTTTTTTTCTTTTCTTCTTTGTTCTTTGTTGTTCTCTCGGAGTCACCTAGTGCAG,10700 fluorescence intensity (a.u.)
21,AAGTTTCGTGCCTTACTTGTATCTTAACCATGTCATCAGGCGGAGTCACCTAGTGCAG,10700 fluorescence intensity (a.u.)

# Look-ups from the entries so far:
# Value for TTTCCTGAGCTGCTGTCTCCCGTTCTCTTTCTGAGAGCAACGGAGTCACCTAGTGCAG under binding signal: 8400 fluorescence intensity (a.u.)
# Value for CTGTTGGCTTTCAACATGAATTTGTTTTCCTTTGCACGGCCGGAGTCACCTAGTGCAG under binding signal: 8720 fluorescence intensity (a.u.)
# Value for CTTGCTCTCTCGTTTGCTCTTCTACTGCTCATCCTCCTCCCGGAGTCACCTAGTGCAG under binding signal: 13700 fluorescence intensity (a.u.)
# Value for GAGTTGGGTTGGAGTGGTTTGGATCGCTGCTTCACTAGGGCGGAGTCACCTAGTGCAG under binding signal: 27400 fluorescence intensity (a.u.)

# Going on with the list:

row,Sequence,binding signal
1,AATTTACTCATTTTAGTATTTTTCTTTTTCCGCACCTTTCCGGAGTCACCTAGTGCAG,9520 fluorescence intensity (a.u.)
2,GGGTCGTTGCTGCTCCTCGGTCGGTCAGCCTCAGCCTCATCGGAGTCACCTAGTGCAG,8850 fluorescence intensity (a.u.)
3,AACGAACACCCACACACATACACACACAGATGCCCAACACCGGAGTCACCTAGTGCAG,9650 fluorescence intensity (a.u.)
4,ACATAGTAATTTTGCATGGCCATCATCTTGCCCTCCTATACGGAGTCACCTAGTGCAG,9620 fluorescence intensity (a.u.)
5,CTCCTCACTCTCTAGCTTGCTCCAGTTTCGCGTAGCTGCGCGGAGTCACCTAGTGCAG,8192 fluorescence intensity (a.u.)
6,TGGGTGGGTCATCACTGGTCAGAGACGACGGGCATGCATTCGGAGTCACCTAGTGCAG,12700 fluorescence intensity (a.u.)
7,TGGTTGGTGGTGTCTGTGCGTGTTCCGGCGAGTGGTCGGTCGGAGTCACCTAGTGCAG,13000 fluorescence intensity (a.u.)
8,TTGTTTGACTCTTTTTTAATTAAATTTCTATAAGTTTAATCGGAGTCACCTAGTGCAG,8280 fluorescence intensity (a.u.)
9,GAGATGGGCTGCATGGGGAGGGGAGTGCAACATTTTTTTGCGGAGTCACCTAGTGCAG,11000 fluorescence intensity (a.u.)
10,AAATTTTATTCTCATATGGCACTTTATATAGCTCACCTATCGGAGTCACCTAGTGCAG,8420 fluorescence intensity (a.u.)
11,AGCAAAACACTCGTCGTCGTCGCCGTCGCGTCCGCCGGAGCGGAGTCACCTAGTGCAG,9330 fluorescence intensity (a.u.)
12,CGCTTCCTGTTGTGATTATGTAATCTTGTATTCTTGTTGACGGAGTCACCTAGTGCAG,11600 fluorescence intensity (a.u.)
13,GCGCCATCCACCATTACAAAGGTGTCTCCACCGATCGAACCGGAGTCACCTAGTGCAG,9760 fluorescence intensity (a.u.)
14,GTGTGGTACTCTGTTGTATCCTTGGTGTACGGGTGTTGGACGGAGTCACCTAGTGCAG,9980 fluorescence intensity (a.u.)
15,GTCGATGTGCCGTCTCCTTTGTTGCTTTTCACCTTTTCTTCGGAGTCACCTAGTGCAG,10500 fluorescence intensity (a.u.)
16,CTGGGTACAACGAAGTTCTGTGGTCCTCTAACATCTTGTCCGGAGTCACCTAGTGCAG,9140 fluorescence intensity (a.u.)
17,GGATTGGTCAAGGACTCCTCTTTTATTATGTCGATTTTTTCGGAGTCACCTAGTGCAG,11100 fluorescence intensity (a.u.)
18,TTCTTATCCTAGGGGTGTTTAGATGGGGCTAAAACTTTTTCGGAGTCACCTAGTGCAG,9310 fluorescence intensity (a.u.)
19,CCTGATTATTTGGTCTCGAATGGGTTCACATTCTTTATCTCGGAGTCACCTAGTGCAG,8340 fluorescence intensity (a.u.)
20,GGAGGCGGTGGTGTTGGAGTTGGAGGGCGCGTGGAGGTGGCGGAGTCACCTAGTGCAG,12900 fluorescence intensity (a.u.)
21,GCCGCGAGTGTCCGATAGCTAATTACCAGTTTTTTTTCGTCGGAGTCACCTAGTGCAG,8190 fluorescence intensity (a.u.)

row,Sequence,binding signal
1,GGAGAGGCGTTGGATTAGATTGGACGGTGGATTGCCTCGACGGAGTCACCTAGTGCAG,8680 fluorescence intensity (a.u.)
2,TTTAACACATGTTTGACCGTTCGTCTTATTCAAAAACTTTCGGAGTCACCTAGTGCAG,10900 fluorescence intensity (a.u.)
3,CTTCCCTAAATGTTTAACGCCATTGACTTTTTTAAACATGCGGAGTCACCTAGTGCAG,12900 fluorescence intensity (a.u.)
4,GAATTTCTTCGCCCTACCACTTCGGTCCATCTGAAGAAATCGGAGTCACCTAGTGCAG,8320 fluorescence intensity (a.u.)
5,CCTCACCCCGTCCCGATGACCGATCCGATCTAGCAACCAACGGAGTCACCTAGTGCAG,8100 fluorescence intensity (a.u.)
6,TGAAGTTCTTATGGTCGCTAATCGTTTGCTTGCTGTTTGACGGAGTCACCTAGTGCAG,10200 fluorescence intensity (a.u.)
7,TCACGGCCGCCTCCGCCATCTGCACAACCTCGCCGCCGCCCGGAGTCACCTAGTGCAG,9670 fluorescence intensity (a.u.)
8,GGTTTTTTTACGGATAAATCTGGTTTTTTTGTCCGATTTTCGGAGTCACCTAGTGCAG,8170 fluorescence intensity (a.u.)
9,GATATCCGGTTTTGTAGTTTAGGGTCATGGTTTAGATTTCCGGAGTCACCTAGTGCAG,14600 fluorescence intensity (a.u.)
10,CTGTTTTTGCCTTTCGATTCCGTCAATAGACTTAGCTATTCGGAGTCACCTAGTGCAG,8570 fluorescence intensity (a.u.)
11,GCTCCATCCTCTATACCCTATCTCTACTACCTACCCGCTCCGGAGTCACCTAGTGCAG,9100 fluorescence intensity (a.u.)
12,CCCTTACATTATTCCCATGTTTTATATAATTTCAAATTTTCGGAGTCACCTAGTGCAG,10300 fluorescence intensity (a.u.)
13,TGTCACGCACTAATCCGCTGTTTTCTCCGGCCGTTCGCCTCGGAGTCACCTAGTGCAG,11900 fluorescence intensity (a.u.)
14,GTCGCCCGTGCATCACTATATCGCACCTCGGTTTCACCCTCGGAGTCACCTAGTGCAG,10900 fluorescence intensity (a.u.)
15,CGTCACCGCCTCCTCCTCCTCCGCCGCCGTCGCCCTCGCGCGGAGTCACCTAGTGCAG,8970 fluorescence intensity (a.u.)
16,ATTTTATCACCTTTTTAGAGTCATTCTTTGACTGCTATGTCGGAGTCACCTAGTGCAG,9550 fluorescence intensity (a.u.)
17,GCTTCGTCACTGTCGCTATACTTGCCAATTCAAATGTCTTCGGAGTCACCTAGTGCAG,11500 fluorescence intensity (a.u.)
18,TGGAGTTCTTTATTGCTTAAGCTCGATCAGATTTCGTTTTCGGAGTCACCTAGTGCAG,10500 fluorescence intensity (a.u.)
19,CCTCCGTCGACCCCGCTCGCCCAGACCCGCTTACCGCCTTCGGAGTCACCTAGTGCAG,9040 fluorescence intensity (a.u.)
20,GCATCTCTATAAATACCCTTGCTATCCCACATTCCAAACTCGGAGTCACCTAGTGCAG,8810 fluorescence intensity (a.u.)
21,TATTACATTGATCAGTTTCCTTTTGAAGGTCCTTTCTCTTCGGAGTCACCTAGTGCAG,8920 fluorescence intensity (a.u.)
